The values below come from patent US20030166891A1.

No constants are given. Whether binding was seen depends on the method and setting. Some binding calls cover weakened binding; strength is not graded here.

The target in the assay is Purified polypeptide encoded by the 1.6 kb fragment of the ECB Bt toxin receptor (fragment set forth in SEQ ID NO: 7), expressed in E. coli from pET-28a-c(+) (Ostrinia nubilalis). Nature of the assay: ligand blot of the purified E. coli-expressed polypeptide.

Take “Cry1A(b) toxin (from UniProt P0A370 29-607) (ligand)”: the binding result is reported as “binds”.
